Part of at least one peptide drawing is inferred or uncertain, most often the ends. Peptide text beside a SMILES is read from it.
Experiments:
Assay type in all cases: cell-based
[1] = tested on: AMPK phosphorylation in C2C12 cell line; experiment: Western blotting of AMPK phosphorylation in differentiated C2C12 myotubes; details: 10 min treatment, tested at 20, 4 and 0.8 uM
Method: (§1) C2C12 and HepG2 cells were purchased from ATCC. Before use, they were cultured in a DMEM (Hyclone) medium supplemented with 10% FBS (Hyclone) and 1% penicillin/streptomycin in an incubator at 37° C. in a 5% CO2 environment.
(§2) C2C12 cells were plated in 12 wells. […] Then, the medium was replaced with a differentiation medium in which DMEM is supplemented with 2.5% horse serum and 1% penicillin/streptomycin. Thereafter, differentiation was performed for 5-7 days, replacing the medium with a new differentiation medium every day. The thus-obtained product was used for experiments.
(§3) Based on the prior finding, after optimization of the number of the cells to be used for experiment, HepG2 was starved for 5 hours, recovered, and treated with peptide for 30 minutes, and C2C12 was starved for 24 hours and treated with peptide for 10 minutes. The treated cell samples were washed once with cold PBS and lysed for 15 minutes with a RiPA buffer containing a protease inhibitor and a phosphatase inhibitor. After 15 minutes, centrifugation was carried out at 14000 rpm for 5 minutes to collect only proteins. After quantification, 4× sample buffer and 2-ME were added to prepare a sample for western blotting. The western blotting was performed using a conventional western blotting technique. The antibodies of AMPK, p-AMPK, p-AKT, p-ACC and GAPDH were diluted to 1:1000 or 1:2000 depending on the type thereof and imaging was performed with a LAS-4000 instrument.
as §2, with “on a 12-well plate.” for “in 12 wells.”, “cells were” for “product was”, “the test.” for “experiments.”
8*10^5 C2C12 cell lines were plated on a 12-well plate, and differentiated to myotubes according to the above method. […]

[2] = tested on: ACC phosphorylation in C2C12 cell line; experiment: Western blotting of ACC phosphorylation in differentiated C2C12 myotubes; details: 10 min treatment, 20, 4 and 0.8 uM
[3] = tested on: AMPK phosphorylation in HepG2 cell line; experiment: Western blotting of AMPK phosphorylation in HepG2 cell line; details: for efficacy of AMPK phosphorylation compared with ADP355: HepG2, 30 min treatment; for concentration from which AMPK was phosphorylated: HepG2, 5 h starvation, 30 min treatment, tested at 20, 4 and 0.8 uM
Method: as §1, §3
HepG2 cell line was plated on a 12-well plate at a concentration of 8*10^5 cells/well on the day before the experiment. After overnight cultivation, they were starved in a serum free medium for 5 hours, and then treated for 30 minutes with reference peptide ADP355, peptide 3-1, peptide 4-3 and peptide 4-4 with concentrations of 20 uM, 4 uM and 0.8 uM, in addition to DMSO 0.4% (MOCK) and 10 ug/ml of adiponectin. Then, they were lysed with a RIPA buffer. Samples were prepared and boiled for 10 min at 95° C. Then, 12 ug thereof was loaded to perform western blotting.
Here, the western blotting was performed on peptide 3-1 with the amino acid sequence of SEQ ID NO: 2, peptide 4-3 with the amino acid sequence of SEQ ID NO: 3 and peptide 4-4 with the amino acid sequence of SEQ ID NO: 4 in the HepG2 cell line, which is a hepatocyte cell line.

[4] = tested on: ACC phosphorylation in HepG2 cell line; experiment: Western blotting of ACC phosphorylation in HepG2 cell line; details: HepG2, 30 min treatment; 20, 4 and 0.8 uM

Compound	concentration from which AMPK was phosphorylated [1]	phosphorylation of ACC [2]	efficacy of AMPK phosphorylation compared with ADP355 [3]	concentration from which AMPK was phosphorylated [3]	phosphorylation of ACC compared with reference peptide [4]
CC[C@H](C)[C@H](NC(=O)[C@H](CC(N)=O)NC(=O)[C@@H]1CCCN1C(=O)[C@H](Cc1c[nH]cn1)NC(=O)[C@H](Cc1ccc(O)cc1)NC(=O)[C@H](C)NC(=O)[C@H](Cc1ccccc1)NC(=O)[C@H](Cc1ccc(O)cc1)NC(=O)[C@@H](N)Cc1ccccc1)C(=O)N1CCC[C@H]1C(=O)NCC(=O)N[C@@H](CC(C)C)C(=O)N[C@@H](Cc1ccccc1)C(=O)N[C@@H](Cc1ccc(O)cc1)C(=O)N[C@@H](Cc1ccccc1)C(=O)O [peptide 4-4, Phe-Tyr-Phe-Ala-Tyr-His-Pro-Asn-Ile-Pro-Gly-Leu-Phe-Tyr-Phe] (H-FYFAYHPNIPGLFYF-OH)	4 µM	increased under all the conditions except for 0.8 uM			
CC[C@H](C)[C@H](NC(=O)[C@H](CC(N)=O)NC(=O)[C@@H]1CCCN1C(=O)[C@H](Cc1c[nH]cn1)NC(=O)[C@H](Cc1ccc(O)cc1)NC(=O)[C@H](C)NC(=O)[C@H](Cc1ccccc1)NC(=O)[C@H](Cc1ccc(O)cc1)NC(=O)[C@@H](N)Cc1c[nH]c2ccccc12)C(=O)N1CCC[C@H]1C(=O)NCC(=O)N[C@@H](CC(C)C)C(=O)N[C@@H](Cc1c[nH]c2ccccc12)C(=O)N[C@@H](Cc1ccc(O)cc1)C(=O)N[C@@H](Cc1ccccc1)C(=O)O [peptide 4-3, Trp-Tyr-Phe-Ala-Tyr-His-Pro-Asn-Ile-Pro-Gly-Leu-Trp-Tyr-Phe] (H-WYFAYHPNIPGLWYF-OH)	4 µM		much higher efficacy than ADP355	0.8 µM	same or more extent than the reference peptide ADP-355
CC[C@H](C)[C@H](NC(=O)[C@H](CC(N)=O)NC(=O)[C@@H]1CCCN1C(=O)[C@H](Cc1c[nH]cn1)NC(=O)[C@H](Cc1ccc(O)cc1)NC(=O)[C@H](C)NC(=O)[C@H](Cc1ccccc1)NC(=O)[C@H](Cc1ccc(O)cc1)NC(=O)[C@@H](N)Cc1ccc(O)cc1)C(=O)N1CCC[C@H]1C(=O)NCC(=O)N[C@@H](CC(C)C)C(=O)N[C@@H](Cc1ccc(O)cc1)C(=O)N[C@@H](Cc1ccc(O)cc1)C(=O)N[C@@H](Cc1ccccc1)C(=O)O [peptide 3-1, Tyr-Tyr-Phe-Ala-Tyr-His-Pro-Asn-Ile-Pro-Gly-Leu-Tyr-Tyr-Phe] (H-YYFAYHPNIPGLYYF-OH)	0.8 µM		much higher efficacy than ADP355	0.8 µM	same or more extent than the reference peptide ADP-355

— US10561705B2, “Agonist peptide for adiponectin receptor” (priority 2016, dated 2020)
